No constants are given. Whether binding was seen depends on the method and setting. In cells and extracts the contact can be indirect. Here binding means that the protein was enriched with, or labelled near, the bait; the list need not be complete.
Each substance was assayed against Fc-glucagon (human) (UniProt P01275) (assay: affinity purification with mass spectrometry; Fc-glucagon expressed in α-TC1-6 cells, captured on Protein A-Sepharose from non-ionic lysate of enriched secretory granules, overnight at 4°C; 7 M urea elution; LC-MS/MS; proteins found with Fc alone subtracted; cells in 25 or 5.5 mM glucose, with or without GABA (25 μM), insulin (100 pM) or both for 24 h).

Amino acid sequences for entries named in this document (tags omitted). Residues count along the entry.
UniProt P01275, residues 53-81: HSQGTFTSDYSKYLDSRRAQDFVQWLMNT
UniProt P63101: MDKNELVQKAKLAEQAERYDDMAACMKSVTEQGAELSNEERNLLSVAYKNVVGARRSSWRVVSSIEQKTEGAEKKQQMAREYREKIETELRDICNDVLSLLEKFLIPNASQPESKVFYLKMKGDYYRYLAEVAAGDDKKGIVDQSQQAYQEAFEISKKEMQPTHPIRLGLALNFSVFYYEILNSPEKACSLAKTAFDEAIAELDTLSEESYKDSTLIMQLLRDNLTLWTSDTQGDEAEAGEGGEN
UniProt Q03265, residues 44-553: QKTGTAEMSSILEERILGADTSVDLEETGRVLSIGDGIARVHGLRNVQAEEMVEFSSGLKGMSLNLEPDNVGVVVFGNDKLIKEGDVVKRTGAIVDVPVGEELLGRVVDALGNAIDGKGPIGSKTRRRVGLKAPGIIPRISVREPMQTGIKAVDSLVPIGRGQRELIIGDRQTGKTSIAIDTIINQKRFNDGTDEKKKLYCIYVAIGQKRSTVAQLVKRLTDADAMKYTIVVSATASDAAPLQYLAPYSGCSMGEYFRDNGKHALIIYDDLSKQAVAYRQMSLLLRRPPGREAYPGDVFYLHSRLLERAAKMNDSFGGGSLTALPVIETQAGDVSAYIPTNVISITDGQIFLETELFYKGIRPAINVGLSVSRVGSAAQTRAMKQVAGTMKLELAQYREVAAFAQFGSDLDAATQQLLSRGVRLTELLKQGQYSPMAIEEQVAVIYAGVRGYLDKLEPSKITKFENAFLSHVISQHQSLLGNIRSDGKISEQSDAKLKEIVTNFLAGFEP
UniProt P05213: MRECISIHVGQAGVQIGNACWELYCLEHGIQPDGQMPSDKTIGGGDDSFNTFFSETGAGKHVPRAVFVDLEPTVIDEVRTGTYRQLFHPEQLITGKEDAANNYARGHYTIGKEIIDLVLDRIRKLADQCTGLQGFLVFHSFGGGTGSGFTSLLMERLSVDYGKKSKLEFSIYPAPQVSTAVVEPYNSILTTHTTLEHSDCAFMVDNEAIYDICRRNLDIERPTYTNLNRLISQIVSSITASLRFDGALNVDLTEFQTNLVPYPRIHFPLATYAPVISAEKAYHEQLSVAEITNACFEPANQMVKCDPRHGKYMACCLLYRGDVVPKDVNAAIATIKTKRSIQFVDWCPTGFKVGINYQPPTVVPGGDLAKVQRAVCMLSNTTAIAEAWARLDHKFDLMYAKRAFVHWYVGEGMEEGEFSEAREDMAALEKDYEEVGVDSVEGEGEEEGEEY
UniProt P48036: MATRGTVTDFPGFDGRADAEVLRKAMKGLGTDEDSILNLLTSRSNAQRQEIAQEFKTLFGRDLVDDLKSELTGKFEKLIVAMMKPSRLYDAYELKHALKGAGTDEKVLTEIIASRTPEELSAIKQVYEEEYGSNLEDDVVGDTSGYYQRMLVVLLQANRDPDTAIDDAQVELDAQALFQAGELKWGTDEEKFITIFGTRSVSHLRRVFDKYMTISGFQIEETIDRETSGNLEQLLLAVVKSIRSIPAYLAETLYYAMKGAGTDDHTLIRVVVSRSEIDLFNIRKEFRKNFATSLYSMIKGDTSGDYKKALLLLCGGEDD
UniProt P19096: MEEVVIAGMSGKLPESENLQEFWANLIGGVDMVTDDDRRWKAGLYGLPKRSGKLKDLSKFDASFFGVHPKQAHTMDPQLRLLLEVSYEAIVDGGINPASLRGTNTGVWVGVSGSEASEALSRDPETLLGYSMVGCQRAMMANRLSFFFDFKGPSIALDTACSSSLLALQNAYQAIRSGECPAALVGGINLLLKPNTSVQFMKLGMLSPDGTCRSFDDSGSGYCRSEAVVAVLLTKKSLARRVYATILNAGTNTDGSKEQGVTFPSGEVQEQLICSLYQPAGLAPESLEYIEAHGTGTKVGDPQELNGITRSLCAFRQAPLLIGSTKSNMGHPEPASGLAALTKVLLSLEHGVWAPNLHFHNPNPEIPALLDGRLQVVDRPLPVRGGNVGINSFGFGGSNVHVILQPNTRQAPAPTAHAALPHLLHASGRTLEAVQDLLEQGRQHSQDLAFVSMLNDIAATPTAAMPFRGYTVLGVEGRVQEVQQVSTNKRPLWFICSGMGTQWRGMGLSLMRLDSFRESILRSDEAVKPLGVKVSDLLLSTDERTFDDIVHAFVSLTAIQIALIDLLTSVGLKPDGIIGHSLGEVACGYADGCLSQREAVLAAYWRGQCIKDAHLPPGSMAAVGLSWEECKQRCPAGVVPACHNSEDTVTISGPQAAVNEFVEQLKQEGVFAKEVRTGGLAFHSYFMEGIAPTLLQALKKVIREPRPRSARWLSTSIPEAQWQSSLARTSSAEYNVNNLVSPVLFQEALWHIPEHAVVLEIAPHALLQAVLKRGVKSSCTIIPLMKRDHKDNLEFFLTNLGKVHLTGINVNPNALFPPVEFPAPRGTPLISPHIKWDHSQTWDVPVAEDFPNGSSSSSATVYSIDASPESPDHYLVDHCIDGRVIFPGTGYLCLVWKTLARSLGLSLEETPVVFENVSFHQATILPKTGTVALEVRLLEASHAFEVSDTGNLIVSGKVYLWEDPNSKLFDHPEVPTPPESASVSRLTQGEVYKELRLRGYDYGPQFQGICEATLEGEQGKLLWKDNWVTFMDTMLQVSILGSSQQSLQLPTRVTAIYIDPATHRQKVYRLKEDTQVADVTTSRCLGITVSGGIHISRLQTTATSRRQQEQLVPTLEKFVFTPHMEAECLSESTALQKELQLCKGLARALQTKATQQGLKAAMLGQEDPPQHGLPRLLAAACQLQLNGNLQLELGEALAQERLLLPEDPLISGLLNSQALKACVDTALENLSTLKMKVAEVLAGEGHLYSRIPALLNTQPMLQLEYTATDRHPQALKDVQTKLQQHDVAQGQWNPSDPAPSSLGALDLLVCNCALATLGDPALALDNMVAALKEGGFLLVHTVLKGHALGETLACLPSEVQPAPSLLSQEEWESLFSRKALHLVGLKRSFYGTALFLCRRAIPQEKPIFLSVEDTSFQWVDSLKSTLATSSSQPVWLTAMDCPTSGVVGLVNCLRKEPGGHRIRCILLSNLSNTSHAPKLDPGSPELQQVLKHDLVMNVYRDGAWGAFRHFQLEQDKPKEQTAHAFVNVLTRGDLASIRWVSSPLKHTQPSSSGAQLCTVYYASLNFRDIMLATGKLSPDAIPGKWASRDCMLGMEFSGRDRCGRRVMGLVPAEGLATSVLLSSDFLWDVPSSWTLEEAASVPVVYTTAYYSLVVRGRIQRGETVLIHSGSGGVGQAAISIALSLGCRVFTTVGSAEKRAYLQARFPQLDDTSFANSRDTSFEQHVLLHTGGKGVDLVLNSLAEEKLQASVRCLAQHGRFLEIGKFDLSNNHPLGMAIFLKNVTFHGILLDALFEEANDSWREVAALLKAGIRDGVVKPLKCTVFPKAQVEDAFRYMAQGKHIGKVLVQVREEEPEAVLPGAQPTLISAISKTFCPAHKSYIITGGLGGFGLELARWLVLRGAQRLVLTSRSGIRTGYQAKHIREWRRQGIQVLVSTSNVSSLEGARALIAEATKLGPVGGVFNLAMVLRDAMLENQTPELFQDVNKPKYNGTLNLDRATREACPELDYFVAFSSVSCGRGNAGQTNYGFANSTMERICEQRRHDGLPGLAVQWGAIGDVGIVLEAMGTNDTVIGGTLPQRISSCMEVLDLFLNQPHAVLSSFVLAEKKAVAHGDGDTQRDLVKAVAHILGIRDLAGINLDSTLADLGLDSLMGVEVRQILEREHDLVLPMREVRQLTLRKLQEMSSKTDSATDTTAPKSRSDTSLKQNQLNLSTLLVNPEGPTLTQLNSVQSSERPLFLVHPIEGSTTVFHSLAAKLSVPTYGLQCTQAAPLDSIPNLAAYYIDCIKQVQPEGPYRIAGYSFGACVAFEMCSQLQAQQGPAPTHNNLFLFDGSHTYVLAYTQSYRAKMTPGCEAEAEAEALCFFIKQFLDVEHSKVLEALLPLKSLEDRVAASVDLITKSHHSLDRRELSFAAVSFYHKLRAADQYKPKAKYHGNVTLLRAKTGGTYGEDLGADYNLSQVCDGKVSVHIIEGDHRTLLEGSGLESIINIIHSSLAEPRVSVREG
UniProt Q61016: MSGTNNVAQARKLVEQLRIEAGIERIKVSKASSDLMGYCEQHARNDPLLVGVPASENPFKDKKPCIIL
UniProt P09103, residues 20-509: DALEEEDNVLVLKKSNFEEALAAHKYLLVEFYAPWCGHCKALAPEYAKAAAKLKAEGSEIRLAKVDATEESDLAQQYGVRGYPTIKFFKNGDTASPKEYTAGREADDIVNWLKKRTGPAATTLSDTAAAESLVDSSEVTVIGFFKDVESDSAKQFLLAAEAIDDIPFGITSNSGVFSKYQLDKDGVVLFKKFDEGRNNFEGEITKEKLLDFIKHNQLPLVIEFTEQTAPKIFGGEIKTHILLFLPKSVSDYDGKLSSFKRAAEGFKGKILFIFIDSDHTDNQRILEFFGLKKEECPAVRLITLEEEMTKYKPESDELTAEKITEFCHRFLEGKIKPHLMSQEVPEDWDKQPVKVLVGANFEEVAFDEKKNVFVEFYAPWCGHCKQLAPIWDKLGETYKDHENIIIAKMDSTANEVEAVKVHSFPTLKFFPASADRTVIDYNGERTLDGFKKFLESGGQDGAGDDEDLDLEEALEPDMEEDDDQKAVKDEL
UniProt P53994: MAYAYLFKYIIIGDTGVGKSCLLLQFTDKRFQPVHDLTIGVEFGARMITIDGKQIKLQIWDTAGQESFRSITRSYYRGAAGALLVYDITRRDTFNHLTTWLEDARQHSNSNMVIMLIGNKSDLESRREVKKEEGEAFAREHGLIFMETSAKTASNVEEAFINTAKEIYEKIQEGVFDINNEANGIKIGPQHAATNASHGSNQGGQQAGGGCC
UniProt Q9QUI0: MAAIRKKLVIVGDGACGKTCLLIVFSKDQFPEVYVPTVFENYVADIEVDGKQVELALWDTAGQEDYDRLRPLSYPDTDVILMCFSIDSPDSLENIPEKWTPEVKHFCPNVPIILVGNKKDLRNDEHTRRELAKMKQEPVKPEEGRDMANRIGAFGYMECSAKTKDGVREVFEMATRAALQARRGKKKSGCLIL
UniProt P20029, residues 20-655: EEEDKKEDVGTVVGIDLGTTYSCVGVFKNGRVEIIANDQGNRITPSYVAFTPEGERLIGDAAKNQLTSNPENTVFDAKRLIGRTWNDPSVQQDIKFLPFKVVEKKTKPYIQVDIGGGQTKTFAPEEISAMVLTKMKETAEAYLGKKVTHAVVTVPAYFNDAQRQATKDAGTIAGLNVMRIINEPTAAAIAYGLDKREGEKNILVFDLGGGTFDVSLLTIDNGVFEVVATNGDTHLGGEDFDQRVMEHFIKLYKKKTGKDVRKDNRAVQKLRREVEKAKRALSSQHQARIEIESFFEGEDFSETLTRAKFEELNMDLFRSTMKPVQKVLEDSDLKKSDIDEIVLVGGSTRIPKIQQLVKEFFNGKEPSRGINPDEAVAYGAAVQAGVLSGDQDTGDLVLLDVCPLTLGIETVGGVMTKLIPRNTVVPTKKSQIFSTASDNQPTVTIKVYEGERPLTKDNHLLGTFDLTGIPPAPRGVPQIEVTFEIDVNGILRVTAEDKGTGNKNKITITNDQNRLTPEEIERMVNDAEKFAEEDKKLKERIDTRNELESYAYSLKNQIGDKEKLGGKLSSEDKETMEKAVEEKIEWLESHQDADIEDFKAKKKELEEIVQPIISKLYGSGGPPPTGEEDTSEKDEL
UniProt P15532: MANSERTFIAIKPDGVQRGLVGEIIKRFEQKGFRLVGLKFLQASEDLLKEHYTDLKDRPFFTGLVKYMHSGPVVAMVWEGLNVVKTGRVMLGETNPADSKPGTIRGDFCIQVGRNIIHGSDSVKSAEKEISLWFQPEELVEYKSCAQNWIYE
UniProt Q01768: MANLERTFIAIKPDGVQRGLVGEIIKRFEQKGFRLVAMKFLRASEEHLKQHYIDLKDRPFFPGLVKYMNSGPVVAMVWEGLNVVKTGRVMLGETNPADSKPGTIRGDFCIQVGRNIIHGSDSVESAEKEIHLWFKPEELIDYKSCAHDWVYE

Substance	binding
14-3-3 protein zeta/delta (from UniProt P63101 1-245)	binds
ATP synthase F1 subunit alpha (from UniProt Q03265 44-553)	binds
ATPase copper transporting alpha polypeptide (from UniProt Q64430 1-1491)	binds
Alpha-tubulin 2 (from UniProt P05213 1-451)	binds
Annexin A5 (from UniProt P48036 1-319)	binds
Fatty acid synthase (from UniProt P19096 1-2504)	binds
Guanine nucleotide-binding protein G(I)/G(S)/G(O) subunit gamma-7 (from UniProt Q61016 1-68)	binds
Heat shock 70 kDa protein 1B (from UniProt P17879 1-642)	binds
Protein disulfide-isomerase (from UniProt P09103 20-509)	binds
Rab2A (from UniProt P53994 1-212)	binds
RhoA (from UniProt Q9QUI0 1-193)	binds
glucose regulated protein 78 kDa (from UniProt P20029 20-655)	binds
microtubule-associated protein 2 (from UniProt P20357 1-1828)	binds
nucleoside diphosphate kinase A (from UniProt P15532 1-152)	binds
nucleoside diphosphate kinase B (from UniProt Q01768 1-152)	binds
